The values below come from paper PMC6107238, “Conformational plasticity of the intrinsically disordered protein ASR1 modulates its function as a drought stress-responsive gene” (PLoS ONE, 2018).

These are yes or no findings as the source states them, for the method shown. Where a sequence is shown, tags or fusion partners need not be part of it.

For experiment [1], the target named is Tomato ASR1 (Abscisic, Stress, Ripening protein 1), untagged recombinant protein (tomato) (UniProt Q08655). As to the kind of experiment: dynamic light scattering; 45 uM ASR1 (legend: 40 uM), buffer T, 25°C, with 5 and 10 uM Zn2+; both purified.
For experiment [2] the target is unchanged. As to the kind of experiment: dynamic light scattering; 45 uM ASR1 (legend: 40 uM), buffer T, 25°C, without Zn2+; both purified.
Experiment [3] shares this target. Briefly: SEC-MALS; analytic Superdex 75 with static light scattering; buffer S75 with 10 uM Zn2+; both purified. For orientation: Size exclusion chromatography separates by hydrodynamic size, large species first.
For experiment [4] the target is unchanged. Briefly: SEC-MALS; analytic Superdex 75 with 90° static light scattering (SLS) and refractive index; buffer S75 (20 mM sodium phosphate pH 7.5, 500 mM NaCl) without Zn2+; 3 mg/mL (SLS), 63 ug in 100 uL (SEC); both purified.

B1: Tomato ASR1 (Abscisic, Stress, Ripening protein 1), untagged recombinant protein (natural protein, UniProt Q08655 1-115, looked up)
chain: MEEEKHHHHHLFHHKDKAEEGPVDYEKEIKHHKHLEQIGKLGTVAAGAYALHEKHEAKKDPEHAHKHKIEEEIAAAAAVGAGGFAFHEHHEKKDAKKEEKKKLRGDTTISSKLLF
notes: ASR1 of tomato; 'peaks corresponding to the expected full-length protein were pooled'; 12.7 kDa by SLS; The cloning of ASR1 alone is not described; also called untagged ASR1; ASR1 recombinant protein
B1: the binding result is “no binding (condition: with 5 and 10 uM Zn2+; 45 uM)” in experiment [1]; “no binding (condition: without Zn2+; 45 uM)” in experiment [2]; “no binding (condition: with 10 uM Zn2+)” in experiment [3]; “no binding (condition: without Zn2+; 3 mg/mL)” in experiment [4].
